Results as given in patent US11013698B2, “Combinations of LSD1 inhibitors for the treatment of hematological malignancies” (Oryzon Genomics S.A., priority 2016, dated 2021).

Columns and labels:
Test in all cases: Viability assay (96 hours), Alamar Blue
Format in all cases: cell-based
HL-60 = details: Homo sapiens; HL-60, 96 hours, single agent
Method: (§1) AML cell lines were maintained in RPMI 10% FBS medium at 37° C. in a humidified incubator with controlled 5% CO2 atmosphere. Cell freezing and thawing was performed following recommendation from ATCC. Genetic profiling of the cell lines used is available in table 2. Cells were seeded at the optimal density (to guarantee linear growth during the treatment), as previously determined (4000 cells/well, except 16000 cells/well in the case of KASUMI-1 cells), in 96-well plates with 50 μL of medium. Three wells were reserved for each experimental condition; medium-only and vehicle-treated controls were also added for background correction and normalization respectively. After seeding, 50 μL of medium containing 8 serial dilutions (1:3) of ORY-1001 (or any other candidates for combinatorial treatment) were added to the cells. […] Alamar Blue® is a cell viability indicator that uses the natural reducing power of living cells to convert resazurin to the fluorescent molecule, resorufin^43.

MV(4;11) = details: Homo sapiens, MV4-11, single agent
Method: as §1

KASUMI-1 = details: Homo sapiens; KASUMI-1, 96 hours, single agent
Method: as §1

OCI-AML2 = details: Homo sapiens; OCI-AML2, 96 hours, single agent
Method: as §1

MOLM-13 = details: Homo sapiens; MOLM-13, 96 hours, single agent
Method: as §1

OCI-AML3 = details: Homo sapiens, OCI-AML-3; OCI-AML3, 96 hours, single agent
Method: as §1

THP-1 = details: Homo sapiens; THP-1, 96 hours, single agent
Method: as §1

Measured: EC50

O=C(CCCCCCC(=O)Nc1ccccc1)NO [SAHA, suberanilohydroxamic acid]
100 to 1000 nM: all assays above
